For two compounds, MIC results are on record in patent publication US20230413823A1, “HYPERLOADED YEAST CELL WALL PARTICLE AND USES THEREOF” (priority 2022, published 2023).

What all share (assay): Antimicrobial microplate assay (MIC 75%)
Common to all, as to type: cell-based

Experiment [1] has as its system Staphylococcus aureus ATCC 19636. The note with it: ATCC19636, 16 h, read-out: Minimum inhibitory concentration (MIC 75%) S. aureus.
In experiment [2] the test system is Escherichia coli Top10. The note with it: TOP10, 16 h, read-out: Minimum inhibitory concentration (MIC 75%) E. coli.
The subject of experiment [3] is Candida albicans SC5134. The conditions noted are these: 16 h, 37° C., absorbance 650 nm, read-out: Minimum inhibitory concentration (MIC 75%) C. albicans. Here is the method:
The antimicrobial activity of YP-GET was evaluated using a modified published microplate assay procedure (Sultanbawa, Y.; Cusack, A.; Currie, M.; Davis, C. An Innovative Microplate Assay to Facilitate the Detection of Antimicrobial 538Activity in Plant Extracts. J. Rapid Meth. Aut. Mic. 2009, 17 (4), 519-534. haps://doi.org/10.111/j.1745-4581.2009.00187.x). Samples of YP-GET were suspended in 100 μL of growth medium (LB 395was used in antibacterial assays and YPD in antifungal assays) and added to the first row 396 (Row A) of a 96-well plate (all wells in the 96-well plate contain additional 100 μL medium). Serial dilutions (1:1) were performed by transferring 100 μL from Row A to Row B, etc., and finally removing 100 μL from Row H. Diluted Escherichia coli Top10 (Invitrogen, Carlsbad CA), Staphylococcus aureus ATCC 19636 or Candida albicans SC5134 cells (100 μL, […]) were added to all wells of the plate. Initial (t=0) and final (t=16 h, 37° C.) absorbance readings were taken at 650 nm.

In brackets after ≈: the same amount, converted by molar mass.

Consider `CC1(C)S[C@@H]2[C@H](NC(=O)[C@H](N)c3ccccc3)C(=O)N2[C@H]1C(=O)O` [Ampicillin], for which the MIC in experiment [1] was below 0.25 µg/mL; in experiment [2], 8 µg/mL (≈ 22.9 µM).
As to `OC(Cn1cncn1)(Cn1cncn1)c1ccc(F)cc1F` [Fluconazole], in experiment [3], the MIC was below 2000 µg/mL.
